Experiment [1] deals with MRIP^724-878 (myosin phosphatase-RhoA interacting protein, residues 724–878; CC2-CC4) (UniProt Q6WCQ1). Description: AUC; sedimentation velocity of mixtures of an MRIP peptide with a MYPT1 peptide (equimolar, 14–67 μM each, with 3- and 9-fold dilutions; excess of peptide for R992D/R993D and E996K), g(s*) curves compared with the peptides alone; 50 mM potassium phosphate pH 7.4, 100 mM KCl, 1 mM DTT, 50,000 rpm, 20°C; both purified.

Amino acid sequences for entries named in this document (tags omitted). Residues count along the entry.
MRIP^545-878 (myosin phosphatase-RhoA interacting protein, residues 545–878; CC1-CC4) (Q6WCQ1, residues 545-878): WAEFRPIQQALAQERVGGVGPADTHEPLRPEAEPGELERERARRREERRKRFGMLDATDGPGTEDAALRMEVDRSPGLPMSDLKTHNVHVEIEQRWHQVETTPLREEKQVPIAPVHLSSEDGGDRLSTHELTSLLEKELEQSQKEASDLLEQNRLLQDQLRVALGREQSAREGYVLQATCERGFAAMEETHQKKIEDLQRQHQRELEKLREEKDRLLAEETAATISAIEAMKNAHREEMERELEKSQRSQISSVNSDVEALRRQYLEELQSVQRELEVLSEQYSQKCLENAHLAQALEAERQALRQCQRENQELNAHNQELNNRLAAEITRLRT
MRIP^724-878 (myosin phosphatase-RhoA interacting protein, residues 724–878; CC2-CC4) (Q6WCQ1, residues 724-878): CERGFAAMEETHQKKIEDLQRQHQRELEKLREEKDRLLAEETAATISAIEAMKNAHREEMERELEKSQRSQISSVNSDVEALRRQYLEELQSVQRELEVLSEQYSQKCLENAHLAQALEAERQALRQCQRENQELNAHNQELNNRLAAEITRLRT
MRIP^724-837 (myosin phosphatase-RhoA interacting protein, residues 724–837; CC2-CC3) (Q6WCQ1, residues 724-837): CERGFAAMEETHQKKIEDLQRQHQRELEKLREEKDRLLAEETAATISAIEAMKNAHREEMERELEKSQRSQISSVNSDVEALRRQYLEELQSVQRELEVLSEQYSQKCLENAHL

Experiment [2] deals with MRIP^724-837 (myosin phosphatase-RhoA interacting protein, residues 724–837; CC2-CC3) (UniProt Q6WCQ1). Described as above.
For experiment [3], the target named is MRIP^545-878 (myosin phosphatase-RhoA interacting protein, residues 545–878; CC1-CC4) (UniProt Q6WCQ1). The experiment is described as above.
The target is the same in experiment [4]. The experiment is described as follows: AUC; sedimentation velocity of each MRIP peptide alone, three-fold serial dilutions (MRIP^545-878 1.5–13.6 μM, MRIP^724-878 4.7–42.3 μM, MRIP^724-837 7.5–67.1 μM); 50 mM potassium phosphate pH 7.4, 100 mM KCl, 1 mM DTT, 50,000 rpm, 20°C; global fitting with SedAnal; constant of MRIP^724-837: dimer to monomers; both purified.

The target of experiment [5] is MRIP^724-878 (myosin phosphatase-RhoA interacting protein, residues 724–878; CC2-CC4) (UniProt Q6WCQ1). Description: SPR; Biacore 3000, 25°C; MRIP^724-878 immobilised (1800 RU) by amine coupling on CM5, analytes CCLR (167–1 μM), CC (318–10 μM), LR (569–5 μM); reference surface G-actin; 50 mM potassium phosphate pH 7.4, 100 mM KCl; steady-state affinity fit; both purified.

Experiment [6] addresses MRIP^724-837 (myosin phosphatase-RhoA interacting protein, residues 724–837; CC2-CC3) (UniProt Q6WCQ1). Description: AUC; data not shown: g(s*) curve of the mixture of MRIP^724-837 and LR; both purified.

No constants are given. Whether binding was seen depends on the method and setting. Some binding calls cover weakened binding; strength is not graded here.

The results in this text go back to paper PMC4596477, “Interaction of Myosin Phosphatase Target Subunit (MYPT1) with Myosin Phosphatase-RhoA Interacting Protein (MRIP): A Role of Glutamic Acids in the Interaction” (PLoS ONE, 2015).

For the molecule “CCLR, MYPT1 peptide (residues 924–1030) containing a putative coiled coil domain (CC) and the leucine repeat region (LR) (from UniProt O14974 924-1030) (domain or fragment)”, the binding entry in experiment [1], in experiment [2] and in experiment [3] was “binds” in each case.

For the molecule “MRIP^545-878 (myosin phosphatase-RhoA interacting protein, residues 545–878; CC1-CC4) (from UniProt Q6WCQ1 545-878) (domain or fragment)”, the binding entry in experiment [4] was “no binding (tested: 1.5–13.6 μM)”.

For the molecule “LR mutant E996K (from UniProt O14974 991-1030) (peptide)”, the binding entry in experiment [1] is listed as “binds”.

For the molecule “LR^997-1030 (from UniProt O14974 997-1030) (peptide)”, the binding result in experiment [1] is given as “binds”.

Regarding “LR mutant EtriA (glutamic acid residues 998–1000 replaced by alanine) (from UniProt O14974 991-1030) (peptide)”, the binding result in experiment [1] is “binds”.

As to “LR^1001-1030 (from UniProt O14974 1001-1030) (peptide)”, in experiment [1], the binding result is “binds”.

As to “CC, putative coiled coil domain of MYPT1 (residues 924–990) (from UniProt O14974 924-990) (domain or fragment)”, the binding result in experiment [5] is reported as “no binding (tested: 318–10 μM)”; in experiment [1], “no binding (tested: 50 μM each)”.

In the case of “LR^1007-1028 (from UniProt O14974 1007-1028) (peptide)”, the binding entry in experiment [1] is listed as “binds”.

“LR mutant R992D/R993D (from UniProt O14974 991-1030) (peptide)”: the binding entry in experiment [1] is listed as “binds”.

In the case of “LR mutant EtriQ (glutamic acid residues 998–1000 replaced by glutamine) (from UniProt O14974 991-1030) (peptide)”, in experiment [1], the binding entry is given as “binds”.

B1: LR, leucine repeat region of MYPT1 (residues 991–1030) (peptide, UniProt O14974 991-1030, looked up)
chain: ERRISEMEEELKMLPDLKADNQRLKDENGALIRVISKLSK
notes: no result of its own is told for it; also called WT-LR; source: E. coli BL21 (DE3), purified (chitin beads, C8 reversed-phase HPLC)
On to B1, for which the binding entry in experiment [1] and in experiment [6] was “binds” in each case.
